Measured values from the supplement of paper PMC5949888.
Most values lie at the floor of the assay. Slopes are relative: functional sequences can read slightly below zero.

What follows are substances tested on Saccharomyces cerevisiae PS128 hsf1 delta, HSF1(1-493) fusion (assay: growth estimate (transactivation domain function in HSF1 fusion, heat-shock survival) (a.u. (slope of normalised read count over time)); higher = stronger growth at 37°C, i.e. more transactivation activity). Settings: library: random library.
SMSTIGKGLFESIRIGRCPI gave a growth estimate of less than -0.25.
IFVSRE was tested, and the growth estimate was less than -0.25.
SEIPILRLSDAQTEACRRFA was tested, and the growth estimate was less than -0.25.
Work on ATPGQEECEQ yielded a growth estimate of less than -0.25.
DEASYVRDVSNHCRHGFWHD was tested, and the growth estimate was less than -0.25.
Substance PLGG has a growth estimate of -0.24.
SVQNVVPFQIVGY gave a growth estimate of -0.25.
Substance LVSRRRPREAQASTQMVRLT has a growth estimate of less than -0.25.
In the case of GRQVGISPCAG, the growth estimate is reported as less than -0.25.
GIMHALTSGGHMISKSE was tested, and the growth estimate was less than -0.25.
GSLTFDMSKYGGRPVGALNP showed a growth estimate of less than -0.25.
RFTCRTILSVWRG showed a growth estimate of less than -0.25.
Work on TTYTTLWQIDLSVAVLRLGN yielded a growth estimate of less than -0.25.
GFEVEGVILSCQYTSEA was tested, and the growth estimate was less than -0.25.
With AGLTRVLTHVDGRVVAFLYW the growth estimate was less than -0.25.
Work on IFQARIAGHVTGKAL yielded a growth estimate of less than -0.25.
Substance AAVGVTSFERITFTVGPGRL has a growth estimate of less than -0.25.
PKIGLTKPPSRNIIVS gave a growth estimate of less than -0.25.
With MMKTFAT the growth estimate was less than -0.25.
Substance LLRMPVGLVSVLHGID has a growth estimate of less than -0.25.
Substance VTIARFLRISRAMFTPVWLP has a growth estimate of less than -0.25.
LCAELPHGSTGDHPRQ showed a growth estimate of less than -0.25.
LFSTPRPLRAPDS showed a growth estimate of less than -0.25.
SWAKRWMRIVYSIRGPVMTT gave a growth estimate of less than -0.25.
VRYSYPTRSPTMQRPKPVVM showed a growth estimate of less than -0.25.
GPTTCH showed a growth estimate of less than -0.25.
With DLRGSMLRVI the growth estimate was less than -0.25.
LDVRVCVMLRGRPCYTRFSC was tested, and the growth estimate was less than -0.25.
In the case of RLRNLSSFSLHDLVIAETQR, the growth estimate is reported as less than -0.25.
For RSERQDVR, the growth estimate was less than -0.25.
In the case of LDESQLRGPRDATASGSQQG, the growth estimate is reported as less than -0.25.
Substance VCGYEDQPQWIPVAKEMTAR has a growth estimate of less than -0.25.
MKRRDRHGGRPRHPPGLAAR gave a growth estimate of less than -0.25.
Substance LSPKEPQCV has a growth estimate of less than -0.25.
In the case of GVSAIRVQHQGLNGAINRSS, the growth estimate is reported as less than -0.25.
With YPPVRIQLAIHC the growth estimate was less than -0.25.
In the case of TWDTWATRSGSLA, the growth estimate is reported as -0.246.
HPSNVSKRGRSGSCLFALVS was tested, and the growth estimate was less than -0.25.
In the case of LVTNSCQPRKIIGDGVRHVP, the growth estimate is reported as less than -0.25.
Work on RDIEKI yielded a growth estimate of less than -0.25.
In the case of VVLDLQP, the growth estimate is reported as less than -0.25.
IQPDGV gave a growth estimate of less than -0.25.
TAQRRETLLDYQVGN gave a growth estimate of less than -0.25.
With YRISRADCDESAVYNGLYQR the growth estimate was less than -0.25.
In the case of RQQIAAGVGGSHVGRSPPQT, the growth estimate is reported as less than -0.25.
With FSCERPQTQLVTFI the growth estimate was less than -0.25.
For ESITCTVSRGGDISTYVVSS, the growth estimate was less than -0.25.
LGKPHVRQFLSGRLWKLILS showed a growth estimate of less than -0.25.
SGLG gave a growth estimate of less than -0.25.
RLRGYRWPVLSQHMLQSVAA was tested, and the growth estimate was less than -0.25.
Substance NSIRSRVNLAMEPLKSTKHR has a growth estimate of less than -0.25.
For RGVLY, the growth estimate was less than -0.25.
In the case of WVRDFSRCIRAASTATPVA, the growth estimate is reported as less than -0.25.
FRVDRELLRRC was tested, and the growth estimate was less than -0.25.
In the case of LSTNEPPCASWLVGCR, the growth estimate is reported as less than -0.25.
RIDVLVFDQGIVLRGL was tested, and the growth estimate was less than -0.25.
NQLAFHDK gave a growth estimate of less than -0.25.
With VHPTLDGHIWSRILT the growth estimate was less than -0.253.
Substance YGCATSVKKGCLLSGGQETQ has a growth estimate of -0.245.
GEVMLILPKHKIVF was tested, and the growth estimate was less than -0.25.
Work on LNKLWHCRTIFERIDIHTMR yielded a growth estimate of less than -0.25.
For QRQYGRGLSLRLGYIMALNG, the growth estimate was less than -0.25.
LSQQARTDVVFTTLSHLKPR was tested, and the growth estimate was less than -0.25.
QVRLSSNLVRGQFGVHECNH was tested, and the growth estimate was less than -0.25.
RPSRMSLHLSPVAACHV showed a growth estimate of less than -0.25.
SSNS was tested, and the growth estimate was less than -0.25.
In the case of VRTQFRKRQRSYCLTPHILP, the growth estimate is reported as less than -0.25.
For SPGRGRP, the growth estimate was less than -0.25.
With TRSRCPCQTDCGTSWSTRTS the growth estimate was less than -0.25.
Substance HSRKALRRISMASGEL has a growth estimate of less than -0.25.
GPNRHLKPRMVFHNSGIGEI showed a growth estimate of less than -0.25.
With STFAVPARITMGIRRAKCHV the growth estimate was less than -0.25.
FHVARRMGRCGVTVCVKVRL gave a growth estimate of less than -0.25.
RAISGQLMIRYAT showed a growth estimate of less than -0.25.
GTGD showed a growth estimate of less than -0.25.
Substance VLVHIRFYVLGGTGASGLTN has a growth estimate of less than -0.25.
For RIDTLG, the growth estimate was less than -0.25.
For VLNSCSGEPRPATNAGIGYS, the growth estimate was -0.245.
Substance KPGPLCAAGSSTNLLVTAIV has a growth estimate of less than -0.25.
Substance AFCGAAEFHRTRAYMVITTY has a growth estimate of less than -0.25.
PRRPSALKDYRCKSLHFSVD was tested, and the growth estimate was less than -0.25.
PGRMKGAR was tested, and the growth estimate was less than -0.25.
Work on EWGDEGSKPQPTACPRLQFS yielded a growth estimate of less than -0.25.
TPFKNAWTLNDFC was tested, and the growth estimate was less than -0.25.
In the case of ETLTRGPGTKDKSWS, the growth estimate is reported as less than -0.25.
Work on GCSKVWQSALDSLYTVGITW yielded a growth estimate of less than -0.25.
PMRDL gave a growth estimate of less than -0.25.
In the case of DLDLGRHRIENIRSACFLWP, the growth estimate is reported as less than -0.25.
For FLEHWQNQTGGF, the growth estimate was less than -0.25.
MVSNLANI showed a growth estimate of less than -0.25.
With ALPWATRGQHTRVRPACSGL the growth estimate was less than -0.25.
Substance ICGVSRLVICHRRFRAFRAD has a growth estimate of less than -0.25.
PYSRDGGPNANSWPGSAGNA showed a growth estimate of less than -0.25.
In the case of KDAGCGIVSEQNGPEVTESQ, the growth estimate is reported as less than -0.25.
RDIP showed a growth estimate of less than -0.25.
Work on GSTSWSHTLRMGYKRATPGR yielded a growth estimate of less than -0.25.
Substance PLPLLGHDLPALL has a growth estimate of less than -0.25.
For WAA, the growth estimate was less than -0.25.
